{"source": "PubChem BioAssay AID1259308 (NCATS, 2017)", "test": "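Candidate targets for better recombinant protein yield in mammalian cells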 (primary screen)", "cell system": "human HEK293 embryonic kidney cells stably expressing firefly luciferase (HEK-CMV-Luc2-Hygro)", "reagents": "single siRNA against human genes, 0.8 pmol siRNA per well", "time to read-out": "72 h", "measured": "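Reporter luminescence and viable-cell signal on separate replicate plates, given as percent of non-targeting control and median/MAD z-scores, plus per-cell luciferase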", "scale": "total luciferase, z-score: higher = more reporter protein produced", "rule for the call": "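An siRNA counts as active if its total luciferase robust z-score exceeds 3; genes with two or more such siRNAs out of three were retested with fresh siRNAs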", "meaning of the calls": "active = raised luciferase; inactive = no rise", "note": "Shown is a random part of about 59,000 reagents tested. Of all reagents, about 1,510 (2.6%) were called active. 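Calls use total luciferase alone and ignore viability, so some active siRNAs may act by altering cell number.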 The numbers tell different reagents against one gene apart. Further read-outs or replicates are left out here."}
{"target": "PEX7 (peroxisomal biogenesis factor 7)", "reagent no.": 1, "total luciferase, z-score": 0.627, "Call": "inactive"}
{"target": "PEX7 (peroxisomal biogenesis factor 7)", "reagent no.": 2, "total luciferase, z-score": 2.4, "Call": "inactive"}
{"target": "PEX7 (peroxisomal biogenesis factor 7)", "reagent no.": 3, "total luciferase, z-score": 0.344, "Call": "inactive"}
{"target": "MSI2 (musashi RNA binding protein 2)", "reagent no.": 1, "total luciferase, z-score": -1.26, "Call": "inactive"}
{"target": "MSI2 (musashi RNA binding protein 2)", "reagent no.": 2, "total luciferase, z-score": 2.79, "Call": "inactive"}
{"target": "MSI2 (musashi RNA binding protein 2)", "reagent no.": 3, "total luciferase, z-score": -0.749, "Call": "inactive"}
{"target": "XKR9 (XK related 9)", "reagent no.": 1, "total luciferase, z-score": 0.692, "Call": "inactive"}
{"target": "XKR9 (XK related 9)", "reagent no.": 2, "total luciferase, z-score": -0.865, "Call": "inactive"}
{"target": "XKR9 (XK related 9)", "reagent no.": 3, "total luciferase, z-score": -2.23, "Call": "inactive"}
{"target": "MYOZ2 (myozenin 2)", "reagent no.": 1, "total luciferase, z-score": 0.694, "Call": "inactive"}
{"target": "MYOZ2 (myozenin 2)", "reagent no.": 2, "total luciferase, z-score": 0.457, "Call": "inactive"}
{"target": "MYOZ2 (myozenin 2)", "reagent no.": 3, "total luciferase, z-score": -0.531, "Call": "inactive"}
{"target": "GTSE1 (G2 and S-phase expressed 1)", "reagent no.": 1, "total luciferase, z-score": 0.364, "Call": "inactive"}
{"target": "GTSE1 (G2 and S-phase expressed 1)", "reagent no.": 2, "total luciferase, z-score": -0.443, "Call": "inactive"}
{"target": "GTSE1 (G2 and S-phase expressed 1)", "reagent no.": 3, "total luciferase, z-score": -0.517, "Call": "inactive"}
{"target": "BCRP3 (BCR pseudogene 3)", "reagent no.": 1, "total luciferase, z-score": 0.0855, "Call": "inactive"}
{"target": "BCRP3 (BCR pseudogene 3)", "reagent no.": 2, "total luciferase, z-score": -0.42, "Call": "inactive"}
{"target": "BCRP3 (BCR pseudogene 3)", "reagent no.": 3, "total luciferase, z-score": -2.95, "Call": "inactive"}
{"target": "ERN1 (endoplasmic reticulum to nucleus signaling 1)", "reagent no.": 1, "total luciferase, z-score": 1.17, "Call": "inactive"}
{"target": "ERN1 (endoplasmic reticulum to nucleus signaling 1)", "reagent no.": 2, "total luciferase, z-score": 1.6, "Call": "inactive"}
{"target": "ERN1 (endoplasmic reticulum to nucleus signaling 1)", "reagent no.": 3, "total luciferase, z-score": 0.272, "Call": "inactive"}
{"target": "HOXB6 (homeobox B6)", "reagent no.": 1, "total luciferase, z-score": 0.238, "Call": "inactive"}
{"target": "HOXB6 (homeobox B6)", "reagent no.": 2, "total luciferase, z-score": 0.205, "Call": "inactive"}
{"target": "HOXB6 (homeobox B6)", "reagent no.": 3, "total luciferase, z-score": -0.681, "Call": "inactive"}
{"target": "STAG3 (STAG3 cohesin complex component)", "reagent no.": 1, "total luciferase, z-score": 0.595, "Call": "inactive"}
{"target": "STAG3 (STAG3 cohesin complex component)", "reagent no.": 2, "total luciferase, z-score": 0.218, "Call": "inactive"}
{"target": "STAG3 (STAG3 cohesin complex component)", "reagent no.": 3, "total luciferase, z-score": 0.532, "Call": "inactive"}
{"target": "FGFR3 (fibroblast growth factor receptor 3)", "reagent no.": 1, "total luciferase, z-score": 0.867, "Call": "inactive"}
{"target": "FGFR3 (fibroblast growth factor receptor 3)", "reagent no.": 2, "total luciferase, z-score": 0.878, "Call": "inactive"}
{"target": "FGFR3 (fibroblast growth factor receptor 3)", "reagent no.": 3, "total luciferase, z-score": 0.635, "Call": "inactive"}
{"target": "MIR1-1HG (MIR1-1 host gene)", "reagent no.": 1, "total luciferase, z-score": 1.2, "Call": "inactive"}
{"target": "MIR1-1HG (MIR1-1 host gene)", "reagent no.": 2, "total luciferase, z-score": 0.221, "Call": "inactive"}
{"target": "MIR1-1HG (MIR1-1 host gene)", "reagent no.": 3, "total luciferase, z-score": 0.346, "Call": "inactive"}
{"target": "KIAA2013", "reagent no.": 1, "total luciferase, z-score": -1.83, "Call": "inactive"}
{"target": "KIAA2013", "reagent no.": 2, "total luciferase, z-score": 0.618, "Call": "inactive"}
{"target": "KIAA2013", "reagent no.": 3, "total luciferase, z-score": -3.38, "Call": "inactive"}
{"target": "CKS2 (CDC28 protein kinase regulatory subunit 2)", "reagent no.": 1, "total luciferase, z-score": -0.541, "Call": "inactive"}
{"target": "CKS2 (CDC28 protein kinase regulatory subunit 2)", "reagent no.": 2, "total luciferase, z-score": 0.0551, "Call": "inactive"}
{"target": "CKS2 (CDC28 protein kinase regulatory subunit 2)", "reagent no.": 3, "total luciferase, z-score": -0.109, "Call": "inactive"}
{"target": "CELF1 (CUGBP Elav-like family member 1)", "reagent no.": 1, "total luciferase, z-score": -0.12, "Call": "inactive"}
{"target": "CELF1 (CUGBP Elav-like family member 1)", "reagent no.": 2, "total luciferase, z-score": -0.131, "Call": "inactive"}
{"target": "CELF1 (CUGBP Elav-like family member 1)", "reagent no.": 3, "total luciferase, z-score": 0.475, "Call": "inactive"}

Look-ups from the entries so far:
For “Call”, MSI2 (musashi RNA binding protein 2) #1 has inactive
Value for CELF1 (CUGBP Elav-like family member 1) #1 in “total luciferase, z-score”: -0.12
PEX7 (peroxisomal biogenesis factor 7) #3, total luciferase, z-score: 0.344
